Laboratory results from patent US7989630B2, “Radiotracers for imaging P-glycoprotein function” (National Institutes of Health Represented by the Secretary …, priority 2008, dated 2011).
Structures can show the parent of a compound that is named as a salt.

By UniProt entry, the sequences of proteins in these tests, tags left out.
UniProt P21447, whole entry: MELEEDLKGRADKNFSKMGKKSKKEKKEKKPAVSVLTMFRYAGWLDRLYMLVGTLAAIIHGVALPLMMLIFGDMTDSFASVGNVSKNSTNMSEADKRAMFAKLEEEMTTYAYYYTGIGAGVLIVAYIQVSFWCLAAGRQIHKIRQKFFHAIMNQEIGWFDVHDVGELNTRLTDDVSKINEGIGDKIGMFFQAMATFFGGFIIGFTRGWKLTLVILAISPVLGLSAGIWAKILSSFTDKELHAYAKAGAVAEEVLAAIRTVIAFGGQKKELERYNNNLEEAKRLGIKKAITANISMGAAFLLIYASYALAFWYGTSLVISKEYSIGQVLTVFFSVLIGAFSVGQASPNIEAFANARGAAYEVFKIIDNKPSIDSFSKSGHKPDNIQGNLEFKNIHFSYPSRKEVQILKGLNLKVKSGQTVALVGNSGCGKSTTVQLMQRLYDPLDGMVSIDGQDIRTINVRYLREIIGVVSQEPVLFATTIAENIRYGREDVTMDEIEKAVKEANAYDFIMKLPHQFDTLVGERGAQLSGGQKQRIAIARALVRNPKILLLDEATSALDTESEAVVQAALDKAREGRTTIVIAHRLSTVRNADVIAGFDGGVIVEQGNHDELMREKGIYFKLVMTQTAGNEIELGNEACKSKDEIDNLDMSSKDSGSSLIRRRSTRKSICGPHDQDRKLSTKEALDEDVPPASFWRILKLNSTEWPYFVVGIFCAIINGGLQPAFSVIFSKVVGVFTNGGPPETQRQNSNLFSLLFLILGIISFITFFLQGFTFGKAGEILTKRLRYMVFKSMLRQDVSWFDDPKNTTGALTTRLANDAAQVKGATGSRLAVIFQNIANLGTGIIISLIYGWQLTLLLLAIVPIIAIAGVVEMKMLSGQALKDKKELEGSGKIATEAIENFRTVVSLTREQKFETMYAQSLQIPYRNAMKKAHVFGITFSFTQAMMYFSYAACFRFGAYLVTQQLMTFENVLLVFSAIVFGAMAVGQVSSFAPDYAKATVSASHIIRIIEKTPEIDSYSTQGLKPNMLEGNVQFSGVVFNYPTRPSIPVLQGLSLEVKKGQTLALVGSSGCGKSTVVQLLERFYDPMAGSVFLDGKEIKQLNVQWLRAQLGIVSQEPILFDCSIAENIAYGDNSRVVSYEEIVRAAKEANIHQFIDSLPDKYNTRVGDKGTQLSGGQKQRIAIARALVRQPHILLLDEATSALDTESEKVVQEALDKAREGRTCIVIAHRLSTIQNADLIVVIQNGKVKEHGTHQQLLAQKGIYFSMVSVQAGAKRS

Columns and labels:
[1] = system: P-gp; test: PET imaging of [^11C]dLop in monkey brain, baseline and P-gp blocked with DCPQ; settings: given 30 min after [^11C]dLop to DCPQ-treated monkey (naloxone 5 mg/kg i.v.; loperamide or dLop 1 mg/kg i.v.)
Method: Scatter and attenuation correction were applied. Images were analyzed with PMOD. Regions of interest were drawn on coronal slices for eight brain regions (frontal cortex, anterior cingulate, temporal cortex, parietal cortex, hippocampus, occipital cortex, putamen and cerebellum). Activity was decay-corrected to the time of injection and expressed as % SUV. […]
Time-radioactivity data were collected for the same eight brain regions as previously described.

[2] = biological target: P-gp (Mus musculus, UniProt P21447); settings: WT mice, 30 min after [^11C]loperamide i.v.
Excerpt: The most lipophilic radiometabolite was identified by radio-HPLC co-elution as N-desmethylloperamide (dLop) (data not shown).

Which “effect on washout of radioactivity from brain regions” value [1] does the source give for `CN(C)C(=O)C(CCN1CCC(O)(c2ccc(Cl)cc2)CC1)(c1ccccc1)c1ccccc1` [Loperamide, 4-(p-chlorophenyl)-4-hydroxy-N,N-dimethyl-α,α-diphenyl-1-piperidinebutyramide hydrochloride, reference compound] here?
The value was “no discernible effect”.

What about the Brain composition [2] of the same molecule?
The Brain composition was 26%.
